This data set has as its target T1, OTF1/NFIII (UniProt P14859).
T1 sequence (looked up, limits assumed): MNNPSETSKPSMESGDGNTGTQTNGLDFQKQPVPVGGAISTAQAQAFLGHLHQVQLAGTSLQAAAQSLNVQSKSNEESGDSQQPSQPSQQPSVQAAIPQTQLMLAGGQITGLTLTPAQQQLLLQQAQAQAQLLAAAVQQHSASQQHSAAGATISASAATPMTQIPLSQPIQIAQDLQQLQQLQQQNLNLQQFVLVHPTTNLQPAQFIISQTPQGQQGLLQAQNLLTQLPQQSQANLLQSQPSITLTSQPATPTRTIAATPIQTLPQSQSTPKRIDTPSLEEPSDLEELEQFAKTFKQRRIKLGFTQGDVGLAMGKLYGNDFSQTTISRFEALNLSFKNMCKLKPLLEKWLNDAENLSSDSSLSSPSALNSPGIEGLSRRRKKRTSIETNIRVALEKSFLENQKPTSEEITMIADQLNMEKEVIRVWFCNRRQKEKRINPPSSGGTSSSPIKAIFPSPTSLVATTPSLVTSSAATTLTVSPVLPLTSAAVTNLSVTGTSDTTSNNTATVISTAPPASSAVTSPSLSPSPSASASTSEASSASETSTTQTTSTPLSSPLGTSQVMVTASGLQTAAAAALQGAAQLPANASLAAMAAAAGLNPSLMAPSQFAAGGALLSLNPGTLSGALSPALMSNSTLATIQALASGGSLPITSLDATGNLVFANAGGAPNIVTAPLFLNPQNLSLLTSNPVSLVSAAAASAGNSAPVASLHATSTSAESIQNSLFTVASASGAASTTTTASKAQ
Put plainly: EMSA. The settings on record: data not shown; reverse orientation; purified native protein; only the site is given. (In EMSA bound probe runs differently from free probe, usually more slowly.)

For at least one entry, the source does not settle the construct or the ends of the probe. Negatives hold for the conditions tested. Tags and fusion partners may be left off the protein sequences shown.

In the case of “ATTGACAT (double strand) [related OTF1-like site near 3' end of 280 bp fragment]”, the binding result was “no binding”.

The values are drawn from patent US5217864, “Replication initiator protein complex and methods of use thereof” (The Rockefeller University).
